The source of these data is PMC4365484.

Amino acid sequences for entries named in this document (tags omitted).
UniProt Q15691: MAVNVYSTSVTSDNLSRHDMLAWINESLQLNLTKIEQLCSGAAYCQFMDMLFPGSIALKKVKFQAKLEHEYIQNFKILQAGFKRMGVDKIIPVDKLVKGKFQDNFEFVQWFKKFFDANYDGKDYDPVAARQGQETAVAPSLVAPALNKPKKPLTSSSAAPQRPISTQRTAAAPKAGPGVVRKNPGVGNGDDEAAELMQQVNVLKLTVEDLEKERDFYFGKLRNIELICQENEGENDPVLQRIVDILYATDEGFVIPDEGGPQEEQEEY

This assay deals with EB1 (yeast two-hybrid fusion) (human) (UniProt Q15691). Put plainly: two-hybrid; Matchmaker 3 yeast two-hybrid system (Clontech), vectors pGBT9 and pGAD424, lacZ reporter, blue colonies on plates with X-Gal.

Results are given in words; binding and its absence hold for the method and conditions named. Tags and fused reporters may be left off the sequences shown.

B1: Astrin (yeast two-hybrid fusion) (protein, UniProt Q96R06 1-1193)
chain: MWRVKKLSLSLSPSPQTGKPSMRTPLRELTLQPGALTNSGKRSPACSSLTPSLCKLGLQEGSNNSSPVDFVNNKRTDLSSEHFSHSSKWLETCQHESDEQPLDPIPQISSTPKTSEEAVDPLGNYMVKTIVLVPSPLGQQQDMIFEARLDTMAETNSISLNGPLRTDDLVREEVAPCMGDRFSEVAAVSEKPIFQESPSHLLEESPPNPCSEQLHCSKESLSSRTEAVREDLVPSESNAFLPSSVLWLSPSTALAADFRVNHVDPEEEIVEHGAMEEREMRFPTHPKESETEDQALVSSVEDILSTCLTPNLVEMESQEAPGPAVEDVGRILGSDTESWMSPLAWLEKGVNTSVMLENLRQSLSLPSMLRDAAIGTTPFSTCSVGTWFTPSAPQEKSTNTSQTGLVGTKHSTSETEQLLCGRPPDLTALSRHDLEDNLLSSLVILEVLSRQLRDWKSQLAVPHPETQDSSTQTDTSHSGITNKLQHLKESHEMGQALQQARNVMQSWVLISKELISLLHLSLLHLEEDKTTVSQESRRAETLVCCCFDLLKKLRAKLQSLKAEREEARHREEMALRGKDAAEIVLEAFCAHASQRISQLEQDLASMREFRGLLKDAQTQLVGLHAKQEELVQQTVSLTSTLQQDWRSMQLDYTTWTALLSRSRQLTEKLTVKSQQALQERDVAIEEKQEVSRVLEQVSAQLEECKGQTEQLELENSRLATDLRAQLQILANMDSQLKELQSQHTHCAQDLAMKDELLCQLTQSNEEQAAQWQKEEMALKHMQAELQQQQAVLAKEVRDLKETLEFADQENQVAHLELGQVECQLKTTLEVLRERSLQCENLKDTVENLTAKLASTIADNQEQDLEKTRQYSQKLGLLTEQLQSLTLFLQTKLKEKTEQETLLLSTACPPTQEHPLPNDRTFLGSILTAVADEEPESTPVPLLGSDKSAFTRVASMVSLQPAETPGMEESLAEMSIMTTELQSLCSLLQESKEEAIRTLQRKICELQARLQAQEEQHQEVQKAKEADIEKLNQALCLRYKNEKELQEVIQQQNEKILEQIDKSGELISLREEVTHLTRSLRRAETETKVLQEALAGQLDSNCQPMATNWIQEKVWLSQEVDKLRVMFLEMKNEKEKLMIKFQSHRNILEENLRRSDKELEKLDDIVQHIYKTLLSIPEVVRGCKELQGLLEFLS
Turning to B1, the binding entry is on record as “no binding”.
